Measurements reported in PubChem BioAssay AID652259 (Drosophila RNAi Screening Center, 2013)
Screen: 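Identify new Wingless signalling regulators in fly cells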 (primary screen). Cell system: Drosophila clone 8 imaginal disc epithelial cells. Reagent: long dsRNA against Drosophila genes. Challenge: pathway stimulated by co-transfected Wingless expression plasmid. Measurement: 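Firefly luciferase from a tcf-site Wingless reporter, measured alongside co-transfected Renilla luciferase that tracks transfection; pathway stimulated by a Wingless plasmid; the firefly-to-Renilla ratio is not deposited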. Scale: firefly reporter light: higher = more Wg reporter light, before normalisation; Renilla control light: higher = more transfected or surviving cells. Active means: 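a knock-down is a candidate when at least two out of four statistical tests show it departing from its plate mean; one test alone signals a weak candidate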. Meaning of the calls: active = candidate regulator (raises or lowers reporter); inactive = not a candidate.
The screen tested about 22,000 reagents; this is an unselected part of those with a known target gene and a result. Over the whole deposit, 233 (1.1%) were called active. 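Light values are raw, unnormalised plate reads; the ratio scores behind the reporter calls were not deposited.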 A number with no mark means an inactive call. Not stated in the record: the amount of reagent, the time to read-out, the dose of the treatment.

Target gene | DRSC id | reporter change call, replicate 1 | firefly reporter light, replicate 1 | firefly reporter light, replicate 2 | Renilla control light, replicate 1 | Renilla control light, replicate 2
LManII (Lysosomal alpha-mannosidase II) | DRSC01986 | – | 7760 | – | 2388 | –
CG32373 | DRSC08895 | Wg reporter activity lowered | 1924 | – | 1056 | –
CG32117 | DRSC21652 | – | 5.66e5 | 5.37e5 | 3.03e5 | 2.20e5
Gapdh2 (Glyceraldehyde 3 phosphate dehydrogenase 2) | DRSC20246 | – | 17620 | – | 8374 | –
Acbp1 (Acyl-CoA binding protein 1) | DRSC03093 | – | 2656 | 8470 | 1211 | 4298
CG11149 | DRSC02130 | – | 1885 | 6135 | 1028 | 2605
Ggt-1 (gamma-glutamyl transpeptidase) | DRSC19993 | – | 4019 | 11152 | 1093 | 3885
CG13784 | DRSC00974 | – | 21378 | – | 11273 | –
CG13784 | DRSC02287 | – | 6257 | – | 3161 | –
CG13891 | DRSC08361 | – | 6403 | – | 4213 | –
Saysd1 (SAYSVFN motif domain containing 1) | DRSC14664 | – | 15612 | – | 13640 | –
Desat2 (Desaturase 2) | DRSC15919 | – | 18472 | – | 4298 | –
CR10991 (pseudo) | DRSC12156 | – | 18098 | – | 3558 | –
Ythdf (YTH N6-methyladenosine RNA binding protein) | DRSC16036 | – | 15463 | – | 14711 | –
Ythdf (YTH N6-methyladenosine RNA binding protein) | DRSC16037 | – | 23217 | – | 19929 | –
CG18131 | DRSC00517 | – | 4212 | 12536 | 810 | 1467
CG12511 | DRSC02171 | – | 3285 | 8599 | 1409 | 4000
CG11777 | DRSC06081 | – | 3817 | 6549 | 698 | 3067
CG30265 | DRSC21592 | – | 7.12e5 | 6.59e5 | 3.54e5 | 2.75e5
CCKLR-17D1 (Cholecystokinin-like receptor at 17D1) | DRSC20010 | – | 21687 | – | 9133 | –
CCKLR-17D1 (Cholecystokinin-like receptor at 17D1) | DRSC20011 | – | 20028 | – | 14378 | –
CCKLR-17D1 (Cholecystokinin-like receptor at 17D1) | DRSC20012 | – | 14149 | – | 11024 | –
Cont (Contactin) | DRSC12149 | – | 7648 | – | 2648 | –
AANATL3 (Arylalkylamine N-acetyltransferase-like 3) | DRSC02089 | – | 2385 | 4932 | 763 | 2307
Mp20 (Muscle protein 20) | DRSC07474 | – | 6508 | – | 2822 | –
tefu (telomere fusion) | DRSC16060 | – | 8888 | – | 3143 | –
IleRS-m (Isoleucyl-tRNA synthetase, mitochondrial) | DRSC10506 | – | 7043 | – | 2762 | –
Sox100B | DRSC15090 | – | 8297 | – | 3613 | –
Sox100B | DRSC16866 | – | 8041 | – | 3153 | –
Or43a (Odorant receptor 43a) | DRSC07485 | – | 2453 | 10195 | 717 | 2807
SdhA (Succinate dehydrogenase, subunit A (flavoprotein)) | DRSC07547 | – | 7848 | – | 2592 | –
SCaMC | DRSC10293 | – | 4881 | – | 2823 | –
SCaMC | DRSC10415 | – | 5859 | – | 1744 | –
ppk8 (pickpocket 8) | DRSC17269 | – | 3620 | – | 1625 | –
Dgk (Diacyl glycerol kinase) | DRSC05064 | – | 16752 | – | 6032 | –
Dgk (Diacyl glycerol kinase) | DRSC05065 | – | 19072 | – | 7571 | –
Dgk (Diacyl glycerol kinase) | DRSC06171 | – | 3904 | 7371 | 1185 | 3430
Dgk (Diacyl glycerol kinase) | DRSC06782 | – | 4659 | 8112 | 86 | 4758
Dgk (Diacyl glycerol kinase) | DRSC22236 | – | 1.02e6 | 9.52e5 | 1.94e5 | 1.59e5
Cftr (CF transmembrane conductance regulator) | DRSC15872 | – | 3184 | 5730 | 1463 | 1746
AANATL4 (Arylalkylamine N-acetyltransferase-like 4) | DRSC06774 | – | 3816 | – | 1747 | –
CG5853 | DRSC01103 | – | 18925 | – | 11004 | –
CG5853 | DRSC02906 | – | 8066 | – | 1895 | –
ATPsynepsilonL (ATP synthase, epsilon subunit-like) | DRSC14548 | – | 9868 | – | 4544 | –
TfIIA-S-2 | DRSC17791 | – | 16215 | – | 14299 | –
Cpr62Bc (Cuticular protein 62Bc) | DRSC08545 | – | 9243 | – | 4033 | –
Spn42Db (Serpin 42Db) | DRSC05009 | – | 1556 | 4083 | 131 | 2181
Mal-A3 (Maltase A3) | DRSC07462 | – | 2263 | 5336 | 657 | 1744
CG17344 | DRSC02607 | – | 1953 | 6694 | 861 | 3286

Targets listed so far whose target name starts with S or s:
Target gene | DRSC id | reporter change call, replicate 1 | firefly reporter light, replicate 1 | firefly reporter light, replicate 2 | Renilla control light, replicate 1 | Renilla control light, replicate 2
Saysd1 (SAYSVFN motif domain containing 1) | DRSC14664 | – | 15612 | – | 13640 | –
Sox100B | DRSC15090 | – | 8297 | – | 3613 | –
Sox100B | DRSC16866 | – | 8041 | – | 3153 | –
SdhA (Succinate dehydrogenase, subunit A (flavoprotein)) | DRSC07547 | – | 7848 | – | 2592 | –
SCaMC | DRSC10293 | – | 4881 | – | 2823 | –
SCaMC | DRSC10415 | – | 5859 | – | 1744 | –
Spn42Db (Serpin 42Db) | DRSC05009 | – | 1556 | 4083 | 131 | 2181
